Laboratory results from PubChem BioAssay AID504834 (National Center for Advancing Translational Sciences (NCATS), 2011).
Hit rate of the full screen: of about 320,000 compounds, about 22,000 (6.9%) were called active. This list was built around the results that the source calls inconclusive (neither active nor inactive); the mix of calls is not that of the screen. The call rests on the fitted dose curve; in most records, active means well fitted inhibition curve with a large enough effect; inconclusive means small, poorly fitted or top-dose-only effect, or another doubt; inactive means no such curve, though single readings can be large or run the other way. Potencies beside an inconclusive call are fits to weak or partial responses and may not hold up.

assay: Primary qHTS for delayed death inhibitors of the malarial parasite plastid, 96 hour incubation; conditions: P. falciparum luciferase reporter growth; series mostly up to 28.7 µM
Outline: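 Compounds incubated with erythrocytes infected by luciferase-expressing P. falciparum (2% hematocrit, 0.05% parasitemia final) for 96 hours, 37 C in 5% CO2. Growth inhibition scored as decreased luciferase luminescence.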
On the % scale 0 is the no-effect control and ±100 the full control effect; potency means the concentration at half of the fitted maximal effect.

SMILES | Potency | activity change, negative = inhibition
CC(C)c1nnc(NC(=O)c2cccc(-n3cnnn3)c2)s1 | inactive | –
Cc1ccccc1C(=O)Nc1cccc(NC(=O)c2ccc(F)cc2)c1 | active: 10.4 µM | –
COc1cccc(/C=C/C(=O)OCC(=O)c2c(N)n(C)c(=O)n(C)c2=O)c1 | inconclusive: 18.5 µM [inhibitor, single point] | –
CCCC(=O)NC(c1ccco1)c1c(O)ccc2ccccc12 (configuration not stated) | inconclusive: 18.5 µM [inhibitor, single point] | –
CCCn1nnnc1NCc1ccc(SC)cc1 | inactive | –
Cc1nnc(NC(=O)c2ccc3ccccc3c2)s1 | inactive | –
O=C(c1cccc(F)c1)N1CCC2(CC1)NCCc1[nH]cnc12 | inactive | –
COc1ccc(OC(C)C(=O)Nc2cccnc2)cc1 (configuration not stated) | inconclusive: 0.0586 µM [inhibitor, full curve, poor fit] | –
CCOC(=O)c1cccc(Nc2nc(-c3cccnc3)nc3ccccc23)c1 | active: 8.28 µM | –
CC(=O)OCC1(C)CN(c2ccccc2)N(C(=O)c2ccc(C(C)(C)C)cc2)C1=O (configuration not stated) | inconclusive: 10.4 µM [inhibitor, single point] | –
Cc1cc(C)c(C(=O)N2CCCC(N3CCN(c4ccc(F)cc4)CC3)C2)o1 (configuration not stated) | inactive | –
OC(C#CCCN1CCCCC1)(c1ccccc1)C1CCCCC1 (configuration not stated) | inconclusive: 3.7 µM [inhibitor, partial curve, poor fit] | –
NNC(=O)/C(=N/Nc1ccccc1)S(=O)(=O)c1ccc(Cl)cc1 | active: 11.7 µM | –
O=C(NC(=S)N1CCc2ccccc21)c1ccccc1 | inconclusive: 18.5 µM [inhibitor, single point] | –
O=C(C1=C[C@H](C2CCCCC2)C[C@H](OCc2ccc(CO)cc2)O1)N1CCN(Cc2ccc3c(c2)OCO3)CC1 | active: 10.4 µM | –
O=C(CCC1CCCN(C(=O)C2(c3ccccc3)CC2)C1)N1CCN(c2ccccn2)CC1 (configuration not stated) | inconclusive: 2.94 µM [inhibitor, partial curve, poor fit] | –
O=C(c1ccc(-c2cccc(C(F)(F)F)c2)o1)N1CCN(c2ccccc2O)CC1 | inconclusive: 18.5 µM [inhibitor, single point] | –
CCOc1cc(N2CCOCC2)c(OCC)cc1NC(=O)C1CCCC1 | inconclusive: 8.28 µM [inhibitor, partial curve, poor fit] | –
Cc1ccc(NC(=O)c2cccc(-n3cnnn3)c2)cc1Cl | inconclusive: 18.5 µM [inhibitor, single point] | –
C=CCc1c(C)nc(-c2ccccc2)nc1N/N=C(\C)c1ccccc1 | inconclusive: 11.7 µM [inhibitor, single point] | –
O=c1[nH]c([N+](=O)[O-])nn1C(c1ccccc1)c1ccccc1 | inconclusive: 11.7 µM [inhibitor, single point] | –
Cc1nc(CC(C)C)cc(C(=O)N2CCCC(Nc3ccc(C)c(C)c3)C2)n1 (configuration not stated) | inconclusive: 13.1 µM [inhibitor, single point] | –
Cc1cccc(NC(=O)CSc2nc3ccccc3c(=O)n2C)c1 | inconclusive: 9.28 µM [inhibitor, single point] | –
CC1CCCN(C(=O)CNS(=O)(=O)c2cccs2)C1 (configuration not stated) | inconclusive: 14.7 µM [inhibitor, single point] | –

SMILES | Potency | activity change, negative = inhibition
Cc1ccccc1C1C(C#N)=C2N=C(N)c3c(sc4c3CCCCC4)N2C2=C1C(=O)CCC2 (configuration not stated) | active: 2.62 µM | –
CCN(CC)S(=O)(=O)c1ccc2oc(C(=O)N3CCc4ccccc4C3)c(C)c2c1 | active: 9.28 µM | –
Cc1ccc(S(=O)(=O)n2nccc2-c2c(-c3ccccc3)noc2C)cc1 | inconclusive: 5.86 µM [inhibitor, partial curve] | –
CCCCn1c(C)cc(C)c(S(=O)(=O)c2ccccc2C)c1=O | active: 14.7 µM | –
COC(=O)C(C)Oc1ccc2c(c1)O/C(=C\c1cccc(Br)c1)C2=O (configuration not stated) | inconclusive: 13.1 µM [inhibitor, partial curve, poor fit] | –
COc1ccc(-c2c(C#Cc3ccsc3)c3cc(-c4cccc5[nH]ccc45)ccc3n2C)cc1 | active: 2.33 µM | –
Cc1ccccc1NC(=O)CCN1CCN(C)CC1 | inconclusive: 18.5 µM [inhibitor, single point] | –
CC(=O)Nc1sc2c(c1C(c1ccc(F)cc1)N1CCOCC1)CCCC2 (configuration not stated) | active: 1.17 µM | –
O=[N+]([O-])c1ccc(N2CCN(c3ccccc3O)CC2)c(Cl)c1 | inconclusive: 18.5 µM [inhibitor, single point] | –
CCN(CC)S(=O)(=O)c1ccc(NC(=O)C2CCCO2)cc1 (configuration not stated) | inconclusive: 0.117 µM [inhibitor, full curve, poor fit] | –
CCCC(=O)NC(=S)Nc1cccc2c(O)cccc12 | inactive | –
CCN(CC(=O)Nc1ccc(NC(C)=O)cc1)CC(=O)Nc1ccccc1C(=O)c1ccccc1 | inconclusive: 9.28 µM [inhibitor, partial curve, poor fit] | –
Cc1ccc(NC(=O)CSc2n[nH]c(N)n2)cc1S(=O)(=O)N1CCOCC1 | inconclusive: 11.7 µM [inhibitor, single point] | –
COc1ccccc1NC(=O)Nc1nc(CC(=O)NC2CCCC2)cs1 | inconclusive: 20.8 µM [inhibitor, partial curve, poor fit] | –
COC(=O)c1cc(S(=O)(=O)N(Cc2ccccc2)C(C)(C)C)c[nH]1 | inconclusive: 18.5 µM [inhibitor, single point] | –
COc1ccc(N2C(=O)N3[C@H](c4cccc(C)c4)[C@@H]4C(=O)N(Cc5ccccc5)C(=O)[C@@H]4[C@]3(Cc3ccccc3)C2=O)cc1 | active: 4.65 µM | –
S=C(NCCc1ccccc1)NCC(c1ccco1)N1CCCCC1 (configuration not stated) | active: 2.62 µM | –
COc1ccccc1NC(=O)C(=O)Nc1ccc2c(c1)N(C(=O)C1CC1)CCC2 | inactive | –
O=C(Nc1nc2c(s1)CCCC2)c1nn(Cc2ccccc2)c(=O)c2ccccc12 | inconclusive: 0.329 µM [inhibitor, full curve, poor fit] | –
COc1cc(C=C(c2nc3ccccc3s2)c2nc3ccccc3s2)cc(OC)c1O | inconclusive: 18.5 µM [inhibitor, single point] | –
Cc1onc(C(=O)NC2CCCCC2)c1[N+](=O)[O-] | inconclusive: 18.5 µM [inhibitor, single point] | –
COc1cccc(NC2=Nc3cccc4cccc2c34)c1 | inconclusive: 18.5 µM [inhibitor, single point] | –
Cc1ccc(-c2csc3nc4ccc(C(=O)NCCO)cc4c(=O)n23)cc1 | inactive | –
CC/C=C/C(=O)N1CC2(CC(c3cccc(NC(=O)CCCCC)c3)=NO2)C[C@H]1C(N)=O (some centres not stated) | inconclusive: 18.5 µM [inhibitor, single point] | –

SMILES | Potency | activity change, negative = inhibition
CNC(=O)CN(CCc1ccccc1)S(=O)(=O)c1ccc(OC)cc1 | inconclusive: 1.85 µM [inhibitor, full curve, poor fit] | –
COC(=O)c1cc(N=C(N)N=C(N)N)cc(C(=O)OC)c1 | inactive | –
Cc1nn(Cc2ccc(Cl)cc2)c(Cl)c1/C=N/NC(=O)c1cccnc1 | inconclusive: 13.1 µM [inhibitor, single point] | –
O=C1C(=O)N(CCN2CCOCC2)C(c2ccncc2)/C1=C(/O)c1ccc2c(c1)OCO2 (configuration not stated) | active: 8.28 µM | –
COc1cccc(C2c3[nH]c4ccccc4c3C[C@H]3C(=O)N(C)CC(=O)N23)c1 (some centres not stated) | active: 7.38 µM | –
COC(=O)CCc1cccc(CCC(=O)OC)c1 | inactive | –
NC(=O)C1CCN(C(=O)c2ccco2)CC1 | inactive | –
Cc1cc(C)nc(NC(=O)c2ccc(Cl)c(Cl)c2)n1 | inactive | –
O=C(Oc1ccccc1)c1cccnc1Oc1ccccc1 | inactive | –
Cc1cccc(C(=O)O/N=C(\N)Cc2cccc3ccccc23)c1 | inconclusive: 2.08 µM [inhibitor, partial curve, poor fit] | –
CCCCCn1c(CN(C)Cc2ccccc2)nc2c1c(=O)n(C)c(=O)n2C | – | inactive: 8.14% [at 5.75 µM]
CCC1CCCCN1CCCNC(=O)c1c(O)nc2cc(C)ccn2c1=O (configuration not stated) | inconclusive: 13.1 µM [inhibitor, single point] | –
CC(C)CC1NC(=O)N(CC(=O)NC2CCCc3ccccc32)C1=O (configuration not stated) | inactive | –
Cc1ccc(N=N/C(=C\O)C(=O)c2ccncc2)cc1 | inconclusive: 10.4 µM [inhibitor, single point] | –
O=C(CCl)c1ccc2c(c1)CCN2C(=O)C1CC1 | active: 10.4 µM | –
CCOC(=O)C1(CCOc2ccccc2)CCN(Cc2cnc(SC)nc2)CC1 | inactive | –
CN(Cc1ccco1)c1ncnc2ccc(-c3ccoc3)cc12 | inconclusive: 18.5 µM [inhibitor, single point] | –
Cc1ccccc1OCC(=O)OCC(=O)c1c[nH]c2ccccc12 | inconclusive: 18.5 µM [inhibitor, single point] | –
COc1ccc(Nc2nc(NCc3ccco3)nc(N/N=C/c3ccccc3Cl)n2)cc1 | inconclusive: 18.5 µM [inhibitor, single point] | –
Cc1cc(Br)c2[nH]c3c(c2c1)CCCC3=O | inactive | –
C=CCc1c(C)nc(C)nc1N/N=C/c1ccc(N(C)C)cc1 | inconclusive: 10.4 µM [inhibitor, single point] | –
Cc1cc(C)c(S(=O)(=O)c2c(C)cccc2C)c(OCC(C)C)n1 | active: 11.7 µM | –
COC(=O)c1sccc1OCc1cccc(OC)c1 | inconclusive: 0.294 µM [inhibitor, full curve, poor fit] | –
CCC(CC)NC(=O)c1n[nH]c(=O)c2ccccc12 | inconclusive: 0.0522 µM [inhibitor, full curve, poor fit] | –

Another view of 3 compounds above.
SMILES	Potency	activity change, negative = inhibition
Cc1cccc(C(=O)O/N=C(\N)Cc2cccc3ccccc23)c1	inconclusive: 2.08 µM [inhibitor, partial curve, poor fit]	–
CCCCCn1c(CN(C)Cc2ccccc2)nc2c1c(=O)n(C)c(=O)n2C	–	inactive: 8.14% [at 5.75 µM]
CCC1CCCCN1CCCNC(=O)c1c(O)nc2cc(C)ccn2c1=O (configuration not stated)	inconclusive: 13.1 µM [inhibitor, single point]	–
